Results taken from patent US11679113B2, “Anticancer treatment for uveal melanoma” (The Regents of the University of California, priority 2019, dated 2023).
Entries after “also recorded” stand apart in the source; their conditions may differ. For at least one compound, name, drawing or mass did not settle the structure.

Experiments:
OM cells = assay: FAKi/MEKi combination cell viability, synergy by Chou-Talalay CI and Bliss score; format: cell-based, human; details: combined with VS-4718
92.1 xenograft = assay: 92.1 OM xenografts treated with MEKi, FAKi or both; format: in vivo, mice; details: 92.1 xenografts; trametinib 1 mg/kg QD i.p., VS-4718 50 mg/kg BID p.o.
Text: FIGS. 17A and 17B show potent antitumoral and cytotoxic effects of FAKi/MEKi combination in OM xenografts. […] (FIG. 17B) Quantification of IHC tumor sections stained for BrdU, cleaved-caspase3 (Cl-Casp3), pERK1/2, and YAP. For each panel, the bars from left to right are control, MEKi, FAKi and MEKi+FAKi. Data are mean±SEM (7 mice/group), *p<0.05;**p<0.01; ***p<0.001; n. s. not significant.

uveal melanoma = details: metastatic or unresectable UM, clinical trials; cited from earlier work

CC(=O)Nc1cccc(-n2c(=O)n(C3CC3)c(=O)c3c(Nc4ccc(I)cc4F)n(C)c(=O)c(C)c32)c1 [trametinib]
synergy of growth inhibition in combination with FAKi VS-4718 (OM cells): remarkable synergistic growth inhibitory effect | antitumoral profile in OM xenografts (cl-Casp3) (92.1 xenograft): cytostatic profile | impact on overall survival of UM patients (uveal melanoma): nearly no impact; also recorded: little impact

Cn1cnc2c(F)c(Nc3ccc(Br)cc3Cl)c(C(=O)NOCCO)cc21 [selumetinib]
impact on overall survival of UM patients (uveal melanoma): nearly no impact; also recorded: little impact
